Laboratory results as given in patent US12729225B2, “Non-canonical SWI/SNF complex and uses thereof” (Dana-Farber Cancer Institute, Inc., priority 2018, dated 2026).

System: mSWI/SNF complexes
Assay: mSWI/SNF complex purification with HA-tagged baits and mass spectrometry (peptide counts)
Design: species or system human
[1] = 293_HA-BRD7 bait purification, mass spectrometry, total peptide count per identified protein
[2] = 293_HA-BRD7 bait purification, mass spectrometry, unique peptide count per identified protein

B1: SLIT2 (protein, UniProt O94813 31-1529, looked up)
Slit homolog 2 protein: QCSCSGSTVDCHGLALRSVPRNIPRNTERLDLNGNNITRITKTDFAGLRHLRVLQLMENKISTIERGAFQDLKELERLRLNRNHLQLFPELLFLGTAKLYRLDLSENQIQAIPRKAFRGAVDIKNLQLDYNQISCIEDGAFRALRDLEVLTLNNNNITRLSVASFNHMPKLRTFRLHSNNLYCDCHLAWLSDWLRQRPRVGLYTQCMGPSHLRGHNVAEVQKREFVCSGHQSFMAPSCSVLHCPAACTCSNNIVDCRGKGLTEIPTNLPETITEIRLEQNTIKVIPPGAFSPYKKLRRIDLSNNQISELAPDAFQGLRSLNSLVLYGNKITELPKSLFEGLFSLQLLLLNANKINCLRVDAFQDLHNLNLLSLYDNKLQTIAKGTFSPLRAIQTMHLAQNPFICDCHLKWLADYLHTNPIETSGARCTSPRRLANKRIGQIKSKKFRCSAKEQYFIPGTEDYRSKLSGDCFADLACPEKCRCEGTTVDCSNQKLNKIPEHIPQYTAELRLNNNEFTVLEATGIFKKLPQLRKINFSNNKITDIEEGAFEGASGVNEILLTSNRLENVQHKMFKGLESLKTLMLRSNRITCVGNDSFIGLSSVRLLSLYDNQITTVAPGAFDTLHSLSTLNLLANPFNCNCYLAWLGEWLRKKRIVTGNPRCQKPYFLKEIPIQDVAIQDFTCDDGNDDNSCSPLSRCPTECTCLDTVVRCSNKGLKVLPKGIPRDVTELYLDGNQFTLVPKELSNYKHLTLIDLSNNRISTLSNQSFSNMTQLLTLILSYNRLRCIPPRTFDGLKSLRLLSLHGNDISVVPEGAFNDLSALSHLAIGANPLYCDCNMQWLSDWVKSEYKEPGIARCAGPGEMADKLLLTTPSKKFTCQGPVDVNILAKCNPCLSNPCKNDGTCNSDPVDFYRCTCPYGFKGQDCDVPIHACISNPCKHGGTCHLKEGEEDGFWCICADGFEGENCEVNVDDCEDNDCENNSTCVDGINNYTCLCPPEYTGELCEEKLDFCAQDLNPCQHDSKCILTPKGFKCDCTPGYVGEHCDIDFDDCQDNKCKNGAHCTDAVNGYTCICPEGYSGLFCEFSPPMVLPRTSPCDNFDCQNGAQCIVRINEPICQCLPGYQGEKCEKLVSVNFINKESYLQIPSAKVRPQTNITLQIATDEDSGILLYKGDKDHIAVELYRGRVRASYDTGSHPASAIYSVETINDGNFHIVELLALDQSLSLSVDGGNPKIITNLSKQSTLNFDSPLYVGGMPGKSNVASLRQAPGQNGTSFHGCIRNLYINSELQDFQKVPMQTGILPGCEPCHKKVCAHGTCQPSSQAGFTCECQEGWMGPLCDQRTNDPCLGNKCVHGTCLPINAFSYSCKCLEGHGGVLCDEEEDLFNPCQAIKCKHGKCRLSGLGQPYCECSSGYTGDSCDREISCRGERIRDYYQKQQGYAACQTTKKVSRLECRGGCAGGQCCGPLRSKRRKYSFECTDGSSFVDEVEKVVKCGCTRCVS
Total [1]: 1 | Unique [2]: 1

B2: APOBR (protein, UniProt Q0VD83 1-1097, looked up)
Apolipoprotein B receptor: MDFLRLYLPGLHQALRGALDSLGTFVSYLLGDAVPTVEREAQAAEELGVVAVGKTGKIVEEEAQEDLEGLRGSQNEGAGRLRGPGDDRRHEVGSSAVEQTWGWGDGSSHGSQAERQDSGAGETAKAARCQEPSAHLEARKKSKAGSGACQDRSGQAQERQESHEQEVNREERLRSWEQEEEEEEVRAREPGMARGAESEWTWHGETEGKAGAVGPKAAGDNREMEQGVREADAGETEEPGAEGAGKGEEVVVVEKACESTRAWGTWGPGAEPEDWGILGREEARTTPGREEARAILDGEEARTISGGEEAETASGGEEAETASGGEEAGTASGGEEAGIASGGEAGTASGGEEAGTASGGEEAGTASGGDEAWTTSGKEEADLLGVRQTEYGAVPGERLLEATGKVWVLEEEGDEEREAEVSPFPKQPQVLGTERTEEAAESQTAGREAVGGQEAGESFEGQVDLRGKEAEMRQDLGIRADRARMEELVQAEEAQEERGSSRDPVAELPSDGEAEGTADLEATPEARPEEELTGEESEAAQTSCGLLGVEWGGLTHSVTKGQGPELMGGAQTPTKQPEEREAGEVELMGVLALSKEEQERSLEAGPRHAGSVKPEASEAFPGAWENRTRKDMERGNTQEDAADGEQREEEETAGGQTLAAEAEGDRESELSEVPEAGGEGLTTQDAGCGTEEGEASVSENQELDGSTGADAGPCPSLGEAYARETEDEEAEADRTSRRGWRLQAVAVGLPDREDAQTGSVAAGIMGGDVVPHISAAGAGEALEGVLGQGWDSKEKEEAAAGEHAGGQEFGLEGSAEEEVTGRGSQVEAFESREGGPWGGRVEAEESAGAEDSCGLDPAGSQTARAEGMGAMVEAGGLLEKWTLLEEEAVGWQEREQREDSEGRCGDYHPEGEAPRLLDAEGLMVTGGRRAEAKETEPESLEHVRGQEEQPTHQAPAEAAPESVGEAETAEAMGSARGGAANSWSEAPLPGSLLDVSVPRSRVHLSRSSSQRRSRPSFRRTPAWEQQEEPPAPNPPEEELSAPEQRPLQLEEPLEPSPLRHDGTPVPARRRPLGHGFGLAHPGMMQELQARLGRPKPQ
Total [1]: 1 | Unique [2]: 1

B3: SRSF2 (protein, UniProt Q01130 2-221, looked up)
Serine/arginine-rich splicing …: SYGRPPPDVEGMTSLKVDNLTYRTSPDTLRRVFEKYGRVGDVYIPRDRYTKESRGFAFVRFHDKRDAEDAMDAMDGAVLDGRELRVQMARYGRPPDSHHSRRGPPPRRYGGGGYGRRSRSPRRRRRSRSRSRSRSRSRSRSRYSRSKSRSRTRSRSRSTSKSRSARRSKSKSSSVSRSRSRSRSRSRSRSPPPVSKRESKSRSRSKSPPKSPEEEGAVSS
Total [1]: 1 | Unique [2]: 1

B4: UPF3B (protein, UniProt Q9BZI7 1-483, looked up)
Regulator of nonsense …: MKEEKEHRPKEKRVTLLTPAGATGSGGGTSGDSSKGEDKQDRNKEKKEALSKVVIRRLPPTLTKEQLQEHLQPMPEHDYFEFFSNDTSLYPHMYARAYINFKNQEDIILFRDRFDGYVFLDNKGQEYPAIVEFAPFQKAAKKKTKKRDTKVGTIDDDPEYRKFLESYATDNEKMTSTPETLLEEIEAKNRELIAKKTTPLLSFLKNKQRMREEKREERRRREIERKRQREEERRKWKEEEKRKRKDIEKLKKIDRIPERDKLKDEPKIKVHRFLLQAVNQKNLLKKPEKGDEKELDKREKAKKLDKENLSDERASGQSCTLPKRSDSELKDEKPKRPEDESGRDYREREREYERDQERILRERERLKRQEEERRRQKERYEKEKTFKRKEEEMKKEKDTLRDKGKKAESTESIGSSEKTEKKEEVVKRDRIRNKDRPAMQLYQPGARSRNRLCPPDDSTKSGDSAAERKQESGISHRKEGGEE
Total [1]: 1 | Unique [2]: 1

B5: BRIX1 (protein, UniProt Q8TDN6 1-353, looked up)
Ribosome biogenesis protein …: MAATKRKRRGGFAVQAKKPKRNEIDAEPPAKRHATAEEVEEEERDRIPGPVCKGKWKNKERILIFSSRGINFRTRHLMQDLRMLMPHSKADTKMDRKDKLFVINEVCEMKNCNKCIYFEAKKKQDLYMWLSNSPHGPSAKFLVQNIHTLAELKMTGNCLKGSRPLLSFDPAFDELPHYALLKELLIQIFSTPRYHPKSQPFVDHVFTFTILDNRIWFRNFQIIEEDAALVEIGPRFVLNLIKIFQGSFGGPTLYENPHYQSPNMHRRVIRSITAAKYREKQQVKDVQKLRKKEPKTLLPHDPTADVFVTPAEEKPIEIQWVKPEPKVDLKARKKRIYKRQRKMKQRMDSGKTK
Total (293_HA-BRD7: HA-BRD7 bait purification, total peptide count per co-purified protein): 14 | Unique (293_HA-BRD7: HA-BRD7 bait purification, unique peptide count per co-purified protein): 11

B6: ##BOK (protein, UniProt Q9UMX3 1-212, looked up)
Bcl-2-related ovarian killer …: MEVLRRSSVFAAEIMDAFDRSPTDKELVAQAKALGREYVHARLLRAGLSWSAPERAAPVPGRLAEVCAVLLRLGDELEMIRPSVYRNVARQLHISLQSEPVVTDAFLAVAGHIFSAGITWGKVVSLYAVAAGLAVDCVRQAQPAMVHALVDCLGEFVRKTLATWLRRRGGWTDVLKCVVSTDPGLRSHWLVAALCSFGRFLKAAFFVLLPER
Total [1]: 1 | Unique [2]: 1

B7: SAP30BP (protein)
chain: MAGKKNVLSSLAVYAEDSEPESDGEAGIEAVGSAAEEKGGLVSDAYGEDDFSRLGGDEDGYEEEEDENSRQSEDDDSETEKPEADDPKDNTEAEKRDPQELVASFSERVRNMSPDEIKIPPEPPGRCSNHLQDKIQKLYERKIKEGMDMNYIIQRKKEFRNPSIYEKLIQFCAIDELGTNYPKDMFDPHGWSEDSYYEALAKAQKIEMDKLEKAKKERTKIEFVTGTKKGTTTNATSTTTTTASTAVADAQKRKSKWDSAIPVTTIAQPTILTTTATLPAVVTVTTSASGSKTTVISAVGTIVKKAKQ
Total [1]: 1 | Unique [2]: 1

B8: ##UTP14C (protein, UniProt Q5TAP6 1-766, looked up)
U3 small nucleolar …: MNVNQVAENLALSHQEELVDLPKNYPLSENEDEGDSDGERKHQKLLEAIISLDGKNRRKLAERSEASLKVSEFSVSSEGSGEKLGLADLLEPVKTSSSLATVKKQLNRVKSKKVVELPLNKEKIEQIHREVAFSKTSQVLSKWDPIILKNQQAEQLVFPLGKEQPAIAPIEHALSGWKARTPLEQEIFNLLHKNKQPVTDPLLTPMEKASLQAMSLEEAKMHRAELQRARALQSYYEAKARKEKKIKSKKYHKVVKKGKAKKALKEFEQLQKVNPTVALEEMEKIENARMMERMSLKHQNSGKWAKSKAIMAKYDLEARQAMQEQLAKNKELTQKLQVASESEEEEGGTEVEELLVPHVANEVQMNVDGPNPWMFRSCTSDTKEAATQEDPEQVPELAAHEVSASEAEERPVAEEEILLREFEERQSLRKRSELNQDAEPASSQETKDSSSQEVLSELRALSQKLKEKHQSRKQKASSEGTVPQVQREEPAPEEAEPLLLQRSERVQTLEELEELGKEDCFQNKELPRPVLEGQQSERTPNNRPDAPKEKKEKEQLINLQNFLTTQSPSVRSLAVPTIIEELEDEEERDQRQMIKEAFAGDDVIRDFLKEKREAVEASKPKDVDLTLPGWGEWGGVGLKPSAKKRRQFLIKAPEGPPRKDKNLPNVIISEKRNIHAAAHQVQVLPYPFTHHRQFERTIQTPIGSTWNTQRAFQKLTTPKVVTKPGHIIKPIKAEDVGYQSSSRSDLPVIQRNPKRITTRHNKEEKL
Total [1]: 1 | Unique [2]: 1

B9: ##IRAK2 (protein, UniProt O43187 1-625, looked up)
Interleukin-1 …: MACYIYQLPSWVLDDLCRNMDALSEWDWMEFASYVITDLTQLRKIKSMERVQGVSITRELLWWWGMRQATVQQLVDLLCRLELYRAAQIILNWKPAPEIRCPIPAFPDSVKPEKPLAASVRKAEDEQEEGQPVRMATFPGPGSSPARAHQPAFLQPPEEDAPHSLRSDLPTSSDSKDFSTSIPKQEKLLSLAGDSLFWSEADVVQATDDFNQNRKISQGTFADVYRGHRHGKPFVFKKLRETACSSPGSIERFFQAELQICLRCCHPNVLPVLGFCAARQFHSFIYPYMANGSLQDRLQGQGGSDPLPWPQRVSICSGLLCAVEYLHGLEIIHSNVKSSNVLLDQNLTPKLAHPMAHLCPVNKRSKYTMMKTHLLRTSAAYLPEDFIRVGQLTKRVDIFSCGIVLAEVLTGIPAMDNNRSPVYLKDLLLSDIPSSTASLCSRKTGVENVMAKEICQKYLEKGAGRLPEDCAEALATAACLCLRRRNTSLQEVCGSVAAVEERLRGRETLLPWSGLSEGTGSSSNTPEETDDVDNSSLDASSSMSVAPWAGAATPLLPTENGEGRLRVIVGREADSSSEACVGLEPPQDVTETSWQIEINEAKRKLMENILLYKEEKVDSIELFGP
Total [1]: 1 | Unique [2]: 1
